Results from the supplement of paper PMC10849652.
Some of the results follow.

Amino acid sequences for entries named in this document (tags omitted). A change or cut given only in a name is not applied to a line headed by its entry.
UniProt Q9BX10: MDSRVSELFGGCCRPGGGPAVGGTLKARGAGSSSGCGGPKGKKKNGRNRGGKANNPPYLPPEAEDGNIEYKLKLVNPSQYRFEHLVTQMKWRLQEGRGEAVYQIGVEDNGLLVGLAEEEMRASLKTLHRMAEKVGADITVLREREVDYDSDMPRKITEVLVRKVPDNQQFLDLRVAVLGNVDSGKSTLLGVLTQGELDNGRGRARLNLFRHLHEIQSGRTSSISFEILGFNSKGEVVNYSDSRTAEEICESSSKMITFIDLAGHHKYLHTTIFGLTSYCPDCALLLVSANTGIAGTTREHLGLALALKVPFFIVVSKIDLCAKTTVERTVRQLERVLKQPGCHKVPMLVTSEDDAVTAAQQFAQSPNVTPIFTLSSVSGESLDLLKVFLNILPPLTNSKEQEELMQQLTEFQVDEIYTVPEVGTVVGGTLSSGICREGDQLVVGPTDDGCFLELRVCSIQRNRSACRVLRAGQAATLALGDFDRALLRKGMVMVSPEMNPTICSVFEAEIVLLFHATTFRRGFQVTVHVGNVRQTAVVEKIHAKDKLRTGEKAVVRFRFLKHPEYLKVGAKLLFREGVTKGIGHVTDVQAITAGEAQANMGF
UniProt P29084: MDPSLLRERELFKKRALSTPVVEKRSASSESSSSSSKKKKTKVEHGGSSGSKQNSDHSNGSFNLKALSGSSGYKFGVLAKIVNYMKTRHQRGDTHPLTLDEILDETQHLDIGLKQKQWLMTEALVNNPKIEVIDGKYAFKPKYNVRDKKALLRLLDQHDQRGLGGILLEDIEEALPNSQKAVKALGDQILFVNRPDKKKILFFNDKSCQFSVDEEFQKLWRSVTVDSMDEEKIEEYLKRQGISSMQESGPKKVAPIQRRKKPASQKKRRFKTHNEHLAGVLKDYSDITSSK
UniProt Q9UKN8: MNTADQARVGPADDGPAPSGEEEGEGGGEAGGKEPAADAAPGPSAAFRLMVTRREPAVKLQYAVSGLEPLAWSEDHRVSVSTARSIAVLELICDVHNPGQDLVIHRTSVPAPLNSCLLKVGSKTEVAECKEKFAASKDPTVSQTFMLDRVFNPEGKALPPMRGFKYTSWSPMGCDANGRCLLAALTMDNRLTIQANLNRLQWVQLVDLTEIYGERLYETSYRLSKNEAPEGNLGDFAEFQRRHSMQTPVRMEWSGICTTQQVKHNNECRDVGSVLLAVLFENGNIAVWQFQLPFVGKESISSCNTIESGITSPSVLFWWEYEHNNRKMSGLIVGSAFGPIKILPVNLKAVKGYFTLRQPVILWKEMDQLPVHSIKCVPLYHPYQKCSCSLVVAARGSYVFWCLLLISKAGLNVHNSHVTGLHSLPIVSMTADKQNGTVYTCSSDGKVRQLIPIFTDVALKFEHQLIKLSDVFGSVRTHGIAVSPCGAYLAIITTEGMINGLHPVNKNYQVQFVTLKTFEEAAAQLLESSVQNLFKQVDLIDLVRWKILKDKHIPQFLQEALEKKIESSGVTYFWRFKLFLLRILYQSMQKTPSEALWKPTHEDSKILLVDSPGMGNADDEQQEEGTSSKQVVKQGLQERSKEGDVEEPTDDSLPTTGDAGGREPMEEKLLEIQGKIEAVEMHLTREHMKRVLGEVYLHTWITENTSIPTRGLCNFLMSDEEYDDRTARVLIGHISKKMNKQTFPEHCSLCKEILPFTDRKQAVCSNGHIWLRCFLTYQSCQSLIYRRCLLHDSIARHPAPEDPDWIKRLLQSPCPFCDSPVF
UniProt Q8WUI4: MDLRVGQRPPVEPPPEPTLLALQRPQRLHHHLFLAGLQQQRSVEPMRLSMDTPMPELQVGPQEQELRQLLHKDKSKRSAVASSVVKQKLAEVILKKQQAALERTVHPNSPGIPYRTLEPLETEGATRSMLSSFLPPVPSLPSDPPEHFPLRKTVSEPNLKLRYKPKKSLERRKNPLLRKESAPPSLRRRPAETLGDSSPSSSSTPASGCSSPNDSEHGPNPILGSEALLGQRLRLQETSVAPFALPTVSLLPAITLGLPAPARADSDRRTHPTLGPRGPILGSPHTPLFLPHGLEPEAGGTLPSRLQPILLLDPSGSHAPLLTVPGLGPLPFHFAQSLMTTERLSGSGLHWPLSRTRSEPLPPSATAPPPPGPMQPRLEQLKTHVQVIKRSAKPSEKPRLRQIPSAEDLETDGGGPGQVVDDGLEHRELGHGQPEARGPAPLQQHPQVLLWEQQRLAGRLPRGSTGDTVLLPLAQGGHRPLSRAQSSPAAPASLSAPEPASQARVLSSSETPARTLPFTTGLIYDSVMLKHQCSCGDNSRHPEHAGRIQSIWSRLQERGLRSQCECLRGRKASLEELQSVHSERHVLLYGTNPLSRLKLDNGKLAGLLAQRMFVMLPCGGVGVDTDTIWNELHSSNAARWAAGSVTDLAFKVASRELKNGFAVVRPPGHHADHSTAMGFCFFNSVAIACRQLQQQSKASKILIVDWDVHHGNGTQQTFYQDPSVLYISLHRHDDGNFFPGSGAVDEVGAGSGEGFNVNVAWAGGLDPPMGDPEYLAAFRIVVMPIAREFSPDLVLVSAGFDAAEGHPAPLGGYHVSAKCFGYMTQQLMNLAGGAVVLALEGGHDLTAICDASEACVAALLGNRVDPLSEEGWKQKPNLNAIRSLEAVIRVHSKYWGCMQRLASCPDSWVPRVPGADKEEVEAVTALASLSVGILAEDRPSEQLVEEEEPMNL
UniProt P78347: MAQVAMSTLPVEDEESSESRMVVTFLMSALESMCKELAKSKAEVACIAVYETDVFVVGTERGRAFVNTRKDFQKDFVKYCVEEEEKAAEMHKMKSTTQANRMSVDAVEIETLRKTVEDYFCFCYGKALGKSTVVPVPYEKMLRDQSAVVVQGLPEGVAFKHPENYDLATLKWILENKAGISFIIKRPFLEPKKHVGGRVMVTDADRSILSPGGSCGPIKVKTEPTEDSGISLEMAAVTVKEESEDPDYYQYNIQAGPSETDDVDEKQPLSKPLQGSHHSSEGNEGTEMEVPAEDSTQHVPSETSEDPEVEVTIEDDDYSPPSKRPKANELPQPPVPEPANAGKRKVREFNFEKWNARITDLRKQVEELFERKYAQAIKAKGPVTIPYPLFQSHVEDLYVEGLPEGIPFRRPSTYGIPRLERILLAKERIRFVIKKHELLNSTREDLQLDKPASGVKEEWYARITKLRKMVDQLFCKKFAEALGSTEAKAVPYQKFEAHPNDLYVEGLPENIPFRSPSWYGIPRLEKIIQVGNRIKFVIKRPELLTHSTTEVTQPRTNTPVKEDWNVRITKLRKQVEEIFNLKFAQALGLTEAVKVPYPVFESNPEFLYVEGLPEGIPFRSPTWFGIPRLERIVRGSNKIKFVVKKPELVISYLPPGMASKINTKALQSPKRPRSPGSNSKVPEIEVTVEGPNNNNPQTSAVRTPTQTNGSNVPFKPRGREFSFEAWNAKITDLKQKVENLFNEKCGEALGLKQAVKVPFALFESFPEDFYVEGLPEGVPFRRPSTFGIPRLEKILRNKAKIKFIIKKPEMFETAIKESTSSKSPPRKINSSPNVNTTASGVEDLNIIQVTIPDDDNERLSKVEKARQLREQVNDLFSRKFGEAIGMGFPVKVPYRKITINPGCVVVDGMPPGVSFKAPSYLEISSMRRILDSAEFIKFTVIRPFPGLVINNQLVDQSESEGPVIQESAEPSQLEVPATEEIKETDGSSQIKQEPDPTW
UniProt Q9BXW7: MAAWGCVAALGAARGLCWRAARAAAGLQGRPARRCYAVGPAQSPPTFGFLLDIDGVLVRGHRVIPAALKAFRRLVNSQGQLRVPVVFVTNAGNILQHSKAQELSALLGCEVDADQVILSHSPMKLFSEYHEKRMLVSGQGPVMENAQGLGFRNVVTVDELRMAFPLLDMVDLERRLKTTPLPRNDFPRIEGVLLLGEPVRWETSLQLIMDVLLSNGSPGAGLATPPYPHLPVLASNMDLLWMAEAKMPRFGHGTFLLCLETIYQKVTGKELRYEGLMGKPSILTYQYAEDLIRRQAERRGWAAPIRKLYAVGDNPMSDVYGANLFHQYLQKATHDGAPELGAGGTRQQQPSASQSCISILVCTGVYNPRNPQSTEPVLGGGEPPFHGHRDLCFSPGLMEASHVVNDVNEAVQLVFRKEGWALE
UniProt P51610: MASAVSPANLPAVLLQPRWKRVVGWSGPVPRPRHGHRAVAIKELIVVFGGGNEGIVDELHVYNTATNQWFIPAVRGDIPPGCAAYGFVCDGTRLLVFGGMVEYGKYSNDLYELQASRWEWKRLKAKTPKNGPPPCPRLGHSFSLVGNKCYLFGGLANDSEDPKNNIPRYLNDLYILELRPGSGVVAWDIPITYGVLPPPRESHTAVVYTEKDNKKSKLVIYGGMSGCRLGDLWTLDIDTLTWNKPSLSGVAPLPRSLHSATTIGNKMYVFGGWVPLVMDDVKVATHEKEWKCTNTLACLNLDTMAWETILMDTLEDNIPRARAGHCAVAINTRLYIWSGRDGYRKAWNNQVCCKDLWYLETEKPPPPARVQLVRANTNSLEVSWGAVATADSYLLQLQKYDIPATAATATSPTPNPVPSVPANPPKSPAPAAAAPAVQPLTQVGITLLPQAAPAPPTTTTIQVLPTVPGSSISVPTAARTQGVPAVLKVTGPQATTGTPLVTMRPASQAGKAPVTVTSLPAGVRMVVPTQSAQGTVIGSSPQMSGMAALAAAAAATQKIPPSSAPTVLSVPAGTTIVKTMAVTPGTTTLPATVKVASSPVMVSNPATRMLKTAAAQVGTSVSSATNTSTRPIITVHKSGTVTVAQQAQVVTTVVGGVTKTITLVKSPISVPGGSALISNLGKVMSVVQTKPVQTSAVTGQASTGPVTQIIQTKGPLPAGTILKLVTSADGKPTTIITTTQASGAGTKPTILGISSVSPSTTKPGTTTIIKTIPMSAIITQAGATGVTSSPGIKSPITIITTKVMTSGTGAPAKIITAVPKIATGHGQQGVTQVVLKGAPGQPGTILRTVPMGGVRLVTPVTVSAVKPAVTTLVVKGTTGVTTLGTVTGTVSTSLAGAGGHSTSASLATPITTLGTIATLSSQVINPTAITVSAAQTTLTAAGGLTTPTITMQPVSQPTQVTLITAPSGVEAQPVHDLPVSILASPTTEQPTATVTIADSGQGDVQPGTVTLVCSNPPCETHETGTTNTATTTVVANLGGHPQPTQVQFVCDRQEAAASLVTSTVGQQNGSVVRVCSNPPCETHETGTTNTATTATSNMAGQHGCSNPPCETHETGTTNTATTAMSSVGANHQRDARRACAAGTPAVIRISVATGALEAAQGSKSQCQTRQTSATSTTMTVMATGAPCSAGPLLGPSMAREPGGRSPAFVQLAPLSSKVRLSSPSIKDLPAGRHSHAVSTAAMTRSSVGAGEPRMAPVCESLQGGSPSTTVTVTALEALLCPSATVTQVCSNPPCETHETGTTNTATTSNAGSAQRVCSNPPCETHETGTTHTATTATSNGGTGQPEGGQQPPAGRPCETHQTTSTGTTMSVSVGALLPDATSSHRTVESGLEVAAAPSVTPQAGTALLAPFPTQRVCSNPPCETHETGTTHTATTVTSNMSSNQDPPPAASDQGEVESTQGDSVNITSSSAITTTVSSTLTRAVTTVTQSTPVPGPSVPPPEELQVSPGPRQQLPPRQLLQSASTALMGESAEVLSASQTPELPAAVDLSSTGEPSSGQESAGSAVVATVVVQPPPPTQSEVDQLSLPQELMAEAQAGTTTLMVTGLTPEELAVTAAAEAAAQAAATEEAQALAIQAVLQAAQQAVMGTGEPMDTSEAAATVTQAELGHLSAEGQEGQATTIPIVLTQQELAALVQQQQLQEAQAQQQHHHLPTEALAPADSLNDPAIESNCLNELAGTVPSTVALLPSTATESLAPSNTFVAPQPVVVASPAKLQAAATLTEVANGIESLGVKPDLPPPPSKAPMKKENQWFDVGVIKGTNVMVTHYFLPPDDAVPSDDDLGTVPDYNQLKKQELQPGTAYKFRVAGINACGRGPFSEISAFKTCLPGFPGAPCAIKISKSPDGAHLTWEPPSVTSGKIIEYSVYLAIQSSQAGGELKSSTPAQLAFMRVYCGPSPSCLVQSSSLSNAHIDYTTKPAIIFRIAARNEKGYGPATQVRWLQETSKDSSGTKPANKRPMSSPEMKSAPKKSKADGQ
UniProt P10412, whole entry, looked up: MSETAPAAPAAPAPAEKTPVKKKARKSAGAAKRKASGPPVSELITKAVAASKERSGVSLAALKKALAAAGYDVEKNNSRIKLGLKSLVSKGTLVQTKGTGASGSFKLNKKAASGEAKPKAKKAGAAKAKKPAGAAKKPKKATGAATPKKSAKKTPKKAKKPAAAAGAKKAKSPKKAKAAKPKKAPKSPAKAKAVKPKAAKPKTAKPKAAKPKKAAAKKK
UniProt P51858: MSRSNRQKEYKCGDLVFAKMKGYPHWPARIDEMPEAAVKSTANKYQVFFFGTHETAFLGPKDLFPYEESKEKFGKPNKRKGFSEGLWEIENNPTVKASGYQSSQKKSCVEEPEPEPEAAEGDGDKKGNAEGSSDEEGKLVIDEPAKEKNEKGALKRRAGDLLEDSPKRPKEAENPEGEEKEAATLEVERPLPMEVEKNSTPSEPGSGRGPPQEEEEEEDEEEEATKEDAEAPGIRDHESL

Assays:
Assay in all cases: log2 fold change, soluble protein after heating vs DMSO (PISA); higher = thermal stabilisation; K562 cells, 10 uM, 30 min; active = over 0.2 and 3.5 SD of the protein, either way, in both replicates (recomputed)
bafetinib = compound: Cc1ccc(NC(=O)c2ccc(CN3CC[C@H](N(C)C)C3)c(C(F)(F)F)c2)cc1Nc1nccc(-c2cncnc2)n1 [bafetinib]
Summary of the method: (§1)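 Quantification of soluble protein used TMTpro 16plex LC-MS/MS, with channel sums equalised. Samples were the supernatant after 21,000xg for 90 min of pooled aliquots from K562 cells (2×10^6 cells/mL) treated with 10 μM compound for 30 min, heated for 3 min over 48°C-58°C, and extracted in PBS with 0.5% NP-40 at 4°C. Values, from duplicates, describe thermal stability against control samples on a log2 fold-change scale.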

[1] = compound: Cc1cccc(CC(=O)N2CCc3c2ccc(-c2cn(C)c4ncnc(N)c24)c3F)n1
Summary of the method: as §1

nilotinib = compound: Cc1cn(-c2cc(NC(=O)c3ccc(C)c(Nc4nccc(-c5cccnc5)n4)c3)cc(C(F)(F)F)c2)cn1 [nilotinib]
Summary of the method: as §1

[2] = compound: Cc1nc(Nc2n[nH]c3c2CN(C(=O)N[C@H](CN(C)C)c2ccccc2)C3(C)C)c2sccc2n1
Summary of the method: as §1

dasatinib = compound: Cc1nc(Nc2ncc(C(=O)Nc3c(C)cccc3Cl)s2)cc(N2CCN(CCO)CC2)n1 [dasatinib]
Summary of the method: as §1

[3] = compound: Cc1ncc(-c2ccnc(Nc3ccc(S(C)(=O)=O)cc3)n2)n1C(C)C
Summary of the method: as §1

[4] = compound: Cn1cc(-c2ccc3c(c2)CCN3C(=O)Cc2cccc(C(F)(F)F)c2)c2c(N)ncnc21
Summary of the method: as §1

[5] = compound: Cn1cc(-c2ccc3nnc(C(F)(F)c4ccc5ncccc5c4)n3n2)cn1
Summary of the method: as §1

tipifarnib = compound: Cn1cncc1[C@@](N)(c1ccc(Cl)cc1)c1ccc2c(c1)c(-c1cccc(Cl)c1)cc(=O)n2C [tipifarnib]
Summary of the method: as §1

mubritinib = compound: FC(F)(F)c1ccc(/C=C/c2nc(COc3ccc(CCCCn4ccnn4)cc3)co2)cc1 [mubritinib]
Summary of the method: as §1

Target | log2 fold change (bafetinib) | log2 fold change [1] | log2 fold change (nilotinib) | log2 fold change [2] | log2 fold change (dasatinib) | log2 fold change [3] | log2 fold change [4] | log2 fold change [5] | log2 fold change (tipifarnib) | log2 fold change (mubritinib)
GTPBP2 (UniProt Q9BX10) | inactive: 0.045 | inactive: 0.108 | inactive: -0.098 | inactive: -0.104 | inactive: -0.059 | inactive: 0.025 | inactive: -0.01 | inactive: -0.083 | inactive: 0.033 | inactive: -0.136
H3-2 (UniProt Q5TEC6) | inactive: -0.618 | inactive: -0.342 | inactive: -0.123 | inactive: -0.039 |  | inactive: -0.04 |  | inactive: -0.032 | inactive: 0.223 | inactive: 0.064
GTF2E2 (UniProt P29084) | inactive: 0.031 | inactive: 0.03 | inactive: -0.082 | inactive: -0.108 | inactive: -0.241 | inactive: 0.005 | inactive: -0.016 | inactive: 0.044 | inactive: 0.051 | inactive: -0.02
HERC4 (UniProt Q5GLZ8) | inactive: -0.059 | inactive: -0.014 | inactive: -0.04 | inactive: -0.008 | inactive: -0.012 | inactive: -0.016 | inactive: 0.057 | inactive: -0.02 | inactive: -0.033 | inactive: 0.039
GTF3C4 (UniProt Q9UKN8) | inactive: -0.065 | inactive: 0.019 | inactive: -0.034 | inactive: -0.069 | inactive: -0.024 | inactive: 0.036 | inactive: -0.017 | inactive: -0.007 | inactive: 0.014 | inactive: 0.01
H2AFY (UniProt O75367) | inactive: 0.13 | inactive: -0.011 | inactive: -0.001 | inactive: -0.093 |  | inactive: 0.128 | inactive: 0.047 | inactive: -0.082 | inactive: 0.002 | inactive: -0.113
HDAC7 isoform 5 (UniProt Q8WUI4) | inactive: -0.023 | inactive: 0.033 | inactive: 0.024 | active: -0.378 | inactive: -0.134 | inactive: -0.161 | inactive: 0.026 | inactive: -0.021 | inactive: 0.093 | inactive: -0.006
GTF2I (UniProt P78347) | inactive: 0.006 | inactive: -0.021 | inactive: 0.062 | inactive: -0.148 | inactive: -0.013 | inactive: -0.139 | inactive: -0.116 | inactive: -0.062 | inactive: 0.098 | inactive: 0.009
HDHD5 (UniProt Q9BXW7) | inactive: 0.029 | inactive: 0.004 | inactive: -0.043 | inactive: -0.088 | inactive: -0.172 | inactive: -0.012 | inactive: 0.07 | inactive: 0.064 | inactive: -0.127 | inactive: -0.143
HDAC5 isoform 3 (UniProt Q9UQL6) | inactive: -0.098 | inactive: 0.201 | inactive: 0.08 | inactive: -0.093 | inactive: 0.055 | inactive: 0.034 | inactive: 0.14 |  |  | inactive: 0.164
GSTM4 (UniProt Q03013) | inactive: 0.021 | inactive: 0.002 | inactive: 0.001 | inactive: 0.088 | inactive: 0 | inactive: -0.018 | inactive: 0.026 | inactive: -0.141 | inactive: -0.023 | inactive: -0.08
HCFC1 isoform 4 (UniProt P51610) | inactive: 0.046 | inactive: -0.004 | inactive: -0.066 | inactive: 0.092 | inactive: -0.088 | inactive: 0.034 | inactive: 0.037 | inactive: 0 | inactive: -0.056 | inactive: 0.027
H1-4 (UniProt P10412) | inactive: 0.313 | inactive: -0.075 | inactive: 0.047 | inactive: 0.016 | inactive: 0.135 | inactive: -0.11 | inactive: -0.365 | inactive: -0.303 | inactive: 0.162 | inactive: -0.062
HDDC2 (UniProt Q7Z4H3) | inactive: -0.015 | inactive: 0.039 | inactive: 0.057 | inactive: -0.005 | inactive: -0.01 | inactive: -0.003 | inactive: 0.069 | inactive: -0.008 | inactive: -0.091 | inactive: 0.043
HDGF (UniProt P51858) | inactive: -0.079 | inactive: -0.008 | inactive: -0.025 | inactive: -0.058 | inactive: -0.008 | inactive: 0 | inactive: 0.017 | inactive: -0.017 | inactive: -0.042 | inactive: 0.022

Shown tab-delimited: entries from further up.
Target	log2 fold change (bafetinib)	log2 fold change [1]	log2 fold change (nilotinib)	log2 fold change [2]	log2 fold change (dasatinib)	log2 fold change [3]	log2 fold change [4]	log2 fold change [5]	log2 fold change (tipifarnib)	log2 fold change (mubritinib)
H3-2 (UniProt Q5TEC6)	inactive: -0.618	inactive: -0.342	inactive: -0.123	inactive: -0.039		inactive: -0.04		inactive: -0.032	inactive: 0.223	inactive: 0.064
GTF2E2 (UniProt P29084)	inactive: 0.031	inactive: 0.03	inactive: -0.082	inactive: -0.108	inactive: -0.241	inactive: 0.005	inactive: -0.016	inactive: 0.044	inactive: 0.051	inactive: -0.02
HERC4 (UniProt Q5GLZ8)	inactive: -0.059	inactive: -0.014	inactive: -0.04	inactive: -0.008	inactive: -0.012	inactive: -0.016	inactive: 0.057	inactive: -0.02	inactive: -0.033	inactive: 0.039
